Molecules are shown by their SMILES. This is one part of the list. These are further read-outs of the screen, such as a control signal, another cell line or another target. No call is given for them. The list favours compounds with an active or inconclusive main result. Words in brackets tell the shape of the fitted curve; partial curves, single points and poor fits give uncertain potencies.

This test can be described thus: Cell signaling CRE-BLA (Fsk stim). The note with it: CHO CRE-bla reporter (cAMP response element driving beta-lactamase), forskolin EC10, beta-lactamase ratio; measured here: 460 nm blue channel. The method, boiled down:
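Titrated compounds plus EC10 NKH 477 on CHO CRE-bla cells, 3 h, 37 °C. CCF4, 2 h RT. Ratio 460/530 nm → AC50.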
As to `Cc1ccc(-c2nc3cccnc3s2)cc1NC(=O)c1ccco1`, the AC50 (in general, the midpoint of the concentration-response curve, whichever way the signal moves) is 25.1 µM [falling, partial curve, poor fit]. The figure for `CN(Cc1ccccc1)c1nc2c(c(=O)[nH]c(=O)n2C)n1CCCSc1ncccn1` is 10 µM [rising, single point]; for `O=S1(=O)N=C(N2CCc3ccccc3C2)c2ccccc21` it is 12.6 µM [falling, partial curve]; for `COc1cccc(Cn2c(=O)c(-c3ccc(Cl)cc3)nc3cnc(N(C)C)nc32)c1` it is 0.398 µM [rising, full curve]. The figure for `CC1CN(c2nc3ccccn3c(=O)c2/C=C(\C#N)S(=O)(=O)c2ccccc2)CC(C)O1` (stereo not drawn) is 20 µM [rising, single point]. The figure for `O=C(NC1(C(F)(F)F)Oc2ccccc2O1)N1CCCC1` is 2.51 µM [falling, partial curve, poor fit]. As for `CCOC(=O)c1cc(-c2ccc3c(c2)OCCO3)nc2c1c(C)nn2CCC#N`, the concentration at half-maximal activity (AC50) is 7.94 µM [rising, partial curve]. Consider `CS(=O)(=O)c1ccc2nc(NC(=O)Oc3ccccc3)sc2c1`, for which the AC50 was 25.1 µM [rising, single point]. With `COc1ccccc1CNc1cc(-c2cccc(C#N)c2)ncn1`, the AC50 is 5.01 µM [rising, full curve].

With `Cc1ccc(-c2cc(C(F)F)n3ncc(C(=O)N4CCN5CCCC5C4)c3n2)cc1` (stereo not drawn), the half-maximal activity concentration (AC50) was 25.1 µM [rising, single point]. For `CC(C)(C)NC(=O)CN(C(=O)CS(=O)CC(=O)Nc1ccc(F)cc1)c1ccc(Cl)cc1` (stereo not drawn), the AC50 was 10 µM [falling, partial curve]. The figure for `O=C(COc1ccc(S(=O)(=O)N2CCCC2)cc1Cl)Nc1ccc2c(c1)OCO2` is 0.00398 µM [falling, full curve, poor fit]; for `Cc1ccc2c(CSc3nc4ccccc4c(=O)n3CCCO)cc(=O)oc2c1` it is 3.98 µM [rising, partial curve]; for `CCCC(=O)Nc1cc(-c2cn3cccnc3n2)ccc1OC` it is 0.251 µM [falling, partial curve]. On to `CCOC(=O)C1=C(C)NC(=O)CC1c1cc2c(cc1Br)OCO2` (stereo not drawn), for which the half-maximal activity concentration (AC50) is 10 µM [rising, single point].

For the molecule `COc1ccc(-c2ccc(-c3nnc(-c4cc(OC)ccc4OC)o3)cc2)cc1`, the AC50 is 0.501 µM [rising, single point]. The value for `O=C(O)C1Cc2c([nH]c3ccccc23)C(c2ccc3c(c2)OCO3)N1` (stereo not drawn) was 0.00316 µM [falling, full curve, poor fit].

In the case of `CC1=CC2(C#N)C3(N=C(N)C2(C#N)C(c2ccccc2)N1)OCCO3` (stereo not drawn), the concentration at half-maximal activity (AC50) was 10 µM [falling, partial curve]. The figure for `COc1ccccc1C(=O)Nc1ccc(S(=O)(=O)N2CCOCC2)cc1` is 7.94 µM [rising, partial curve]; for `COc1ccc2c3c(c(=O)oc2c1OCC(=O)C(C)(C)C)CCCC3` it is 12.6 µM [rising, partial curve]; for `O=C1c2ccccc2-c2ccc(C(=O)N3CCOCC3)cc21` it is 10 µM [rising, partial curve]. The figure for `Cc1ccc(N2C(=O)C(Cl)=C(Nc3c(C)n(C)n(-c4ccccc4)c3=O)C2=O)cc1` is 5.01 µM [falling, single point].

As for `CCOC(=O)c1ncn2c1C(=O)OC2(C)C`, the half-maximal activity concentration (AC50) is 20 µM [falling, partial curve]. The figure for `CCOC(=O)c1[nH]c2ccc(OC)cc2c1NC(=O)CN1CCC2(CC1)OCCO2` is 10 µM [rising, partial curve]; for `Cc1noc(C)c1-c1nccc(NCc2ccccc2)n1` it is 3.16 µM [rising, full curve]; for `Nc1nncn1C(=O)c1cccs1` it is 7.94 µM [falling, partial curve, poor fit]. The figure for `COc1ccc(C2C=C(c3ccc(Br)s3)Nc3ncnn32)cc1OC` (stereo not drawn) is 10 µM [rising, partial curve]; for `Cc1ccc(C)c(N2CCN(C(=O)c3cc(S(=O)(=O)N4CCOCC4)ccc3F)CC2)c1` it is 10 µM [rising, single point]; for `Cc1cc(C(=O)NCCC2=CCCCC2)c(C)o1` it is 12.6 µM [falling, single point]. The value for `N#CCSCC(=O)Nc1ccc(F)cc1` was 0.00398 µM [falling, full curve, poor fit]. Regarding `Cc1noc(C)c1CSc1nc2ccccc2nc1NS(=O)(=O)c1ccc(Cl)cc1`, the AC50 is 20 µM [rising, single point].

For `CCCCNc1nc(SC)nc2nc[nH]c12`, the concentration at half-maximal activity (AC50) was 3.16 µM [rising, single point]. The figure for `CCOC(=O)Cc1csc(SCn2nnc3ccccc3c2=O)n1` is 0.0158 µM [falling, partial curve, poor fit]. The value for `O=C(c1cccs1)n1nc(-c2ccccc2)nc1NCc1ccco1` was 25.1 µM [rising, single point]; that for `COc1ccc(NC(=O)N2CCCC3(CCN(C(=O)c4cc(C(F)(F)F)cc(C(F)(F)F)c4)CC3)C2)cc1` was 25.1 µM [rising, single point].

As for `CCOC(=O)c1cnc(SCC(=O)Nc2ccc(NC(C)=O)c(OC)c2)nc1N`, the AC50 was 12.6 µM [rising, single point]. The figure for `COCc1cc(C)[nH]c(=O)c1C#N` is 0.631 µM [falling, partial curve]; for `COC(=O)CSc1nc(C2CC2)nc2ccccc12` it is 12.6 µM [rising, single point]; for `COc1ccc2cc(C(c3nnnn3Cc3ccc(F)cc3)N3CCCCCC3)c(=O)[nH]c2c1` (stereo not drawn) it is 12.6 µM [rising, single point]. The value for `CCCc1[nH]nc2c1C(C1CC=CCC1)C(C#N)=C(N)O2` (stereo not drawn) was 20 µM [falling, single point]; that for `CCOC(=O)CSc1nc2cccnc2n1-c1ccc(F)cc1` was 12.6 µM [rising, partial curve]; that for `O=S(=O)(O)CCN1CCOCC1` was 0.158 µM [falling, partial curve, poor fit]. In the case of `O=C(c1nn2c(C(F)(F)F)cc(-c3ccccc3)nc2c1Cl)N1CCOCC1`, the AC50 was 12.6 µM [rising, single point]. The value for `O=C(c1ccncc1)N1CCN(C(=O)c2cccs2)CC1` was 0.00398 µM [falling, full curve]; that for `O=C(Nc1ccc(F)cc1)N(Cc1ccco1)Cc1cc2cc3c(cc2[nH]c1=O)OCO3` was 7.94 µM [rising, partial curve]; that for `CC(C)C(=O)N1CCc2cc(-c3csc(N)n3)ccc21` was 7.94 µM [rising, partial curve]. The figure for `O=C(O)c1cc2nc3c(c(C(F)(F)F)n2n1)CCc1ccccc1-3` is 1.26 µM [rising, partial curve]; for `N#Cc1cccc(NC(=O)N2CCCC3(CCN(C(=O)c4ccco4)CC3)C2)c1` it is 12.6 µM [falling, single point]. The figure for `COC(=O)c1ccc2c(c1)C(=O)N(C1CCCCC1)C2=O` is 0.00794 µM [falling, full curve, poor fit]; for `CN(C)C(=O)c1ccc(-c2ccc3ncnc(NCc4cccnc4)c3c2)cc1` it is 10 µM [rising, partial curve]; for `COc1ccccc1NC(=O)CSCC(N)=O` it is 25.1 µM [rising, single point]. Take `COCc1cc(C)nc(N2CCc3ccccc32)c1C#N`: the AC50 was 7.94 µM [rising, partial curve]. The value for `c1cc2c(cc1Oc1nc(N3CCOCC3)nc(N3CCOCC3)n1)OCO2` was 12.6 µM [falling, partial curve]. Regarding `CCNc1ncc2nc(-c3ccc(Cl)cc3)c(=O)n(Cc3ccc(F)cc3)c2n1`, the AC50 is 5.01 µM [rising, partial curve].

Consider `Cn1c(C(=O)N2CCN(c3ccccn3)CC2)cc2c(=O)n(C)c3ccccc3c21`, for which the AC50 is 12.6 µM [rising, partial curve]. The figure for `Cc1c(/C=N/n2cnnc2)c2ccccc2n1CCOc1ccc(Cl)cc1` is 3.98 µM [rising, partial curve]; for `COc1ccc(CCNC(=O)c2cnn3cccnc23)cc1OC` it is 12.6 µM [rising, single point]; for `CC1CCC2C(C1)c1sc(=O)[nH]c1SC2(C)C` (stereo not drawn) it is 10 µM [rising, partial curve]. The value for `Cc1ccc(NC(=O)CN2CCC3(O)CCCCC3C2c2ccc3c(c2)OCO3)c(C)c1` (stereo not drawn) was 10 µM [rising, partial curve]; that for `CN1CCN(c2ncc3nc(-c4cc(F)cc(F)c4)c(=O)n(CCc4ccccc4)c3n2)CC1` was 1 µM [rising, full curve]. The figure for `CCN(CC(=O)Nc1ccc2c(c1)OCCO2)Cc1cc(=O)oc2cc(C)c(C)cc12` is 12.6 µM [rising, partial curve]; for `Cc1cc2n(n1)C(c1sccc1C)Nc1ccccc1-2` (stereo not drawn) it is 10 µM [rising, partial curve]; for `CCCC(=O)c1ccc(N2CCN(S(=O)(=O)c3ccc(C)cc3)CC2)c(F)c1` it is 3.98 µM [falling, single point]. Consider `CCOc1ccccc1Oc1cn[nH]c1-c1ccc(OC)cc1O`, for which the AC50 is 25.1 µM [falling, single point]. The figure for `Cc1ccc(C2C3=C(CC(C)(C)CC3=O)Nc3n[nH]c(C)c32)cc1` (stereo not drawn) is 3.16 µM [rising, single point]; for `CC(C)(C)C(=O)/C=c1\[nH]c(=O)/c(=C\c2ccc(C#N)cc2)s1` it is 15.8 µM [rising, partial curve]. In the case of `CCCN1CC=C2C(C#N)=C(N)C(C#N)(C#N)C(c3cc(OC)ccc3OC)C2C1` (stereo not drawn), the AC50 is 10 µM [rising, partial curve]. The value for `CC1(C)CC(=O)C2=C(C1)OC1=C(C(=O)CC(C)(C)C1)C2c1ccc(O)cc1O` was 0.0126 µM [falling, partial curve, poor fit].

The values above are taken from PubChem BioAssay AID662 (National Center for Advancing Translational Sciences (NCATS), 2007).
